According to the supplement of paper PMC6078165:
Values are relative to the signal before dosing, not to a vehicle control; the signal also falls without drug.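 Fibroblast labels denote human fibroblasts, mainly primary ones from uterus (C12385, HUF), lung (H6013), bone (Hs27A), adrenal (HADF) and skin (WS1), plus mammary HMF and breast cancer-associated Hs343T. Cancer cells are basal-like or mesenchymal-like triple-negative breast cancer lines. A hit is a response shift exceeding 3x replicate standard deviation. The tissue of the other fibroblasts is not given here.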

Test system: Hs578T
Assay: relative JC-1 red fluorescence (viability) vs pre-drug, coculture with fibroblast (fraction); higher = more viable cancer cells
Description: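 JC-1 labelled TNBC cells cocultured 1:1 (1,500 cells each) with CellTrace Violet stained primary or stromal fibroblasts in 384-well plates in FluoroBrite medium, treated with one of 42 anticancer drugs at 0.1, 1, 10 or 100 uM. JC-1 red fluorescence (mitochondrial integrity in cancer cells only) was read by plate reader every 8 h for 72 h. Values are normalised to each well's pre-drug value. The stock of one drug was tenfold lower, so its dose labels may be too high.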

N#Cc1ccc(C(c2ccc(C#N)cc2)n2cncn2)cc1 [Letrozole]
relative JC-1 red fluorescence
Settings | 8 h | 16 h | 24 h | 32 h | 40 h | 48 h | 56 h | 64 h | 72 h
10 µM | 0.8865 | 0.802 | 0.755 | 0.7158 | 0.6494 | 0.6023 | 0.5769 | 0.5349 | 0.526
100 µM | 0.898 | 0.81562 | 0.7688 | 0.737 | 0.689 | 0.649 | 0.619 | 0.58 | 0.564

relative JC-1 red fluorescence
Settings | 8 h | 16 h | 24 h | 32 h | 40 h | 48 h | 56 h | 64 h | 72 h
10 µM, coculture fibroblast: C12385 | 0.8176 | 0.7193 | 0.667 | 0.576 | 0.507 | 0.468 | 0.432 | 0.417 | 0.408
10 µM, coculture fibroblast: H6013 | 0.8506 | 0.808 | 0.75095 | 0.708 | 0.662 | 0.635 | 0.613 | 0.595 | 0.554
10 µM, coculture fibroblast: H6019 | 0.7866 | 0.697 | 0.651 | 0.57 | 0.53 | 0.499 | 0.47 | 0.447 | 0.426
10 µM, coculture fibroblast: H6076 | 0.9072 | 0.849 | 0.792 | 0.778 | 0.735 | 0.722 | 0.696 | 0.69 | 0.691
10 µM, coculture fibroblast: H6231 | 0.869 | 0.794 | 0.787 | 0.766 | 0.712 | 0.694 | 0.66 | 0.641 | 0.625
10 µM, coculture fibroblast: HADF | 0.8671 | 0.811 | 0.745 | 0.697 | 0.642 | 0.611 | 0.577 | 0.554 | 0.516
10 µM, coculture fibroblast: HCFa | 0.8279 | 0.7367 | 0.661 | 0.592 | 0.524 | 0.491 | 0.463 | 0.439 | 0.407
10 µM, coculture fibroblast: HCPF | 0.914 | 0.842 | 0.787 | 0.753 | 0.688 | 0.665 | 0.6364 | 0.6008 | 0.566
10 µM, coculture fibroblast: HHSteC | 0.816 | 0.734 | 0.667 | 0.61 | 0.555 | 0.516 | 0.491 | 0.47 | 0.447
10 µM, coculture fibroblast: HMF | 0.917 | 0.868 | 0.7951 | 0.768 | 0.703 | 0.673 | 0.634 | 0.603 | 0.58
10 µM, coculture fibroblast: HPFa | 0.878 | 0.783 | 0.718 | 0.663 | 0.615 | 0.576 | 0.532 | 0.505 | 0.461
10 µM, coculture fibroblast: HUF | 0.832 | 0.7226 | 0.704 | 0.598 | 0.532 | 0.496 | 0.462 | 0.455 | 0.444
10 µM, coculture fibroblast: Hs27A | 0.9095 | 0.823 | 0.759 | 0.7042 | 0.6477 | 0.6307 | 0.5871 | 0.564 | 0.5073
10 µM, coculture fibroblast: Hs343T | 0.908 | 0.823 | 0.767 | 0.749 | 0.69 | 0.657 | 0.614 | 0.586 | 0.568
10 µM, coculture fibroblast: WS1 | 0.822 | 0.728 | 0.6834 | 0.5875 | 0.517 | 0.489 | 0.445 | 0.428 | 0.41
100 µM, coculture fibroblast: C12385 | 0.832 | 0.74708 | 0.66771 | 0.597 | 0.5332 | 0.49857 | 0.464 | 0.435 | 0.422
100 µM, coculture fibroblast: H6013 | 0.925 | 0.901 | 0.846 | 0.837 | 0.805 | 0.802 | 0.777 | 0.769 | 0.738
100 µM, coculture fibroblast: H6019 | 0.837 | 0.782 | 0.7484 | 0.672 | 0.633 | 0.589 | 0.543 | 0.508 | 0.469
100 µM, coculture fibroblast: H6076 | 0.9229 | 0.8635 | 0.832 | 0.816 | 0.783 | 0.787 | 0.771 | 0.759 | 0.747
100 µM, coculture fibroblast: H6231 | 0.918 | 0.86 | 0.825 | 0.798 | 0.753 | 0.723 | 0.685 | 0.653 | 0.635
100 µM, coculture fibroblast: HADF | 0.906 | 0.841 | 0.796 | 0.76 | 0.718 | 0.697 | 0.66 | 0.644 | 0.602
100 µM, coculture fibroblast: HCFa | 0.894 | 0.8425 | 0.785 | 0.732 | 0.663 | 0.641 | 0.605 | 0.585 | 0.551
100 µM, coculture fibroblast: HCPF | 0.939 | 0.8826 | 0.8417 | 0.804 | 0.766 | 0.746 | 0.731 | 0.69 | 0.667
100 µM, coculture fibroblast: HHSteC | 0.9248 | 0.86 | 0.784 | 0.741 | 0.674 | 0.643 | 0.622 | 0.596 | 0.562
100 µM, coculture fibroblast: HMF | 0.953 | 0.884 | 0.8197 | 0.777 | 0.723 | 0.696 | 0.6565 | 0.632 | 0.608
100 µM, coculture fibroblast: HPFa | 0.94206 | 0.855 | 0.759 | 0.694 | 0.63 | 0.579 | 0.527 | 0.495 | 0.446
100 µM, coculture fibroblast: HUF | 0.8737 | 0.805 | 0.744 | 0.649 | 0.591 | 0.548 | 0.507 | 0.481 | 0.457
100 µM, coculture fibroblast: Hs27A | 0.877 | 0.8089 | 0.742 | 0.692 | 0.626 | 0.6 | 0.549 | 0.527 | 0.471
100 µM, coculture fibroblast: Hs343T | 0.977 | 0.901 | 0.835 | 0.808 | 0.748 | 0.708 | 0.658 | 0.62 | 0.596
100 µM, coculture fibroblast: WS1 | 0.8471 | 0.7777 | 0.721 | 0.647 | 0.583 | 0.5573 | 0.5261 | 0.503 | 0.481
